# Results: PubChem BioAssay (EPA / NIEHS)
# Chains of the proteins cited; added tags and fusions are not shown. Lines headed by an entry give the natural chain unless they say otherwise; changes in a name come on top.
# UniProt P06401: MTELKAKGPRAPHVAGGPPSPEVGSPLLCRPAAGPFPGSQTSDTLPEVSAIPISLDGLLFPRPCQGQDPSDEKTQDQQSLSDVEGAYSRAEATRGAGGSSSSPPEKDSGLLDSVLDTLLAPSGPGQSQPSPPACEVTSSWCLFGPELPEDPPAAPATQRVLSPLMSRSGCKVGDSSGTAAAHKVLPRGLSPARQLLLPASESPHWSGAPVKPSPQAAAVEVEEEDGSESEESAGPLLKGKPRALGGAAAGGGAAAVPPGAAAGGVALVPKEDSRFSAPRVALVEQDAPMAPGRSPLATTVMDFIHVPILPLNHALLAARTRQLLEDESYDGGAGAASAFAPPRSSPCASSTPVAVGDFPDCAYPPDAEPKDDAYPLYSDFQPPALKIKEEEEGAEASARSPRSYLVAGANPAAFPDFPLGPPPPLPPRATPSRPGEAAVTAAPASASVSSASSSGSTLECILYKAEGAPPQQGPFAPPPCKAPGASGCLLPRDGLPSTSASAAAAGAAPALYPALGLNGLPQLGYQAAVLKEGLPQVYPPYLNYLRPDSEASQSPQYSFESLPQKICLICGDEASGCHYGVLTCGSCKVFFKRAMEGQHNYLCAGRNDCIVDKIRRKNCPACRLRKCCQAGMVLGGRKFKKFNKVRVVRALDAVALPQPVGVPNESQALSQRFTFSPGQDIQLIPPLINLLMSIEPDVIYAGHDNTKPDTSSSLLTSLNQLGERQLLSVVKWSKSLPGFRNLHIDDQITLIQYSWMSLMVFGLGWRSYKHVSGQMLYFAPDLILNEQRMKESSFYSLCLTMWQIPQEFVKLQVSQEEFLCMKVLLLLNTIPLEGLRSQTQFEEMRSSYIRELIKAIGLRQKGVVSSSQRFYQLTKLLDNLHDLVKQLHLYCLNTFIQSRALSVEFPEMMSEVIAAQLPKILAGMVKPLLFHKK
# UniProt P10276, whole entry, looked up: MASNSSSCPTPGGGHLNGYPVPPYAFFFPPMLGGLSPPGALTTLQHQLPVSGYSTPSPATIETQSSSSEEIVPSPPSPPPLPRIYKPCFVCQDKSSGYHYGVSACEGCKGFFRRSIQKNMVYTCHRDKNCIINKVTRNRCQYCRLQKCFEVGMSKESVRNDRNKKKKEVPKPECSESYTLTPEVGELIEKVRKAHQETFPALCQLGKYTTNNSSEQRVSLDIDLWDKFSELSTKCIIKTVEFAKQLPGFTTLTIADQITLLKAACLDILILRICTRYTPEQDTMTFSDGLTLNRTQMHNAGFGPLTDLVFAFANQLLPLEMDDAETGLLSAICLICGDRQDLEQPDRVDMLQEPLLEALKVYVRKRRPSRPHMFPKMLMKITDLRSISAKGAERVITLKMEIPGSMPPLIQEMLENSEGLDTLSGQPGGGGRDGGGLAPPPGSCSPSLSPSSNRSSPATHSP
# UniProt O75469: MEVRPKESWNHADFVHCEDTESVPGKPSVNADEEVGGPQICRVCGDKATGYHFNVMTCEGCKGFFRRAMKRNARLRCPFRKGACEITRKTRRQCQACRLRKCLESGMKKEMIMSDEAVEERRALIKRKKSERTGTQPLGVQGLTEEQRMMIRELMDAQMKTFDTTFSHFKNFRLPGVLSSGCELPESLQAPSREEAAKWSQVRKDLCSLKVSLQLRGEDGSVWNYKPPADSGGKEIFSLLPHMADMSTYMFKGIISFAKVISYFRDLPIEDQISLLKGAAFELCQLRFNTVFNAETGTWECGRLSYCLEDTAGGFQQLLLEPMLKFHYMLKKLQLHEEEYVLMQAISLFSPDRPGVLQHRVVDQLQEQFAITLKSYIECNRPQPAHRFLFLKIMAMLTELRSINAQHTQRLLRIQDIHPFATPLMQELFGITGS
# UniProt P10275: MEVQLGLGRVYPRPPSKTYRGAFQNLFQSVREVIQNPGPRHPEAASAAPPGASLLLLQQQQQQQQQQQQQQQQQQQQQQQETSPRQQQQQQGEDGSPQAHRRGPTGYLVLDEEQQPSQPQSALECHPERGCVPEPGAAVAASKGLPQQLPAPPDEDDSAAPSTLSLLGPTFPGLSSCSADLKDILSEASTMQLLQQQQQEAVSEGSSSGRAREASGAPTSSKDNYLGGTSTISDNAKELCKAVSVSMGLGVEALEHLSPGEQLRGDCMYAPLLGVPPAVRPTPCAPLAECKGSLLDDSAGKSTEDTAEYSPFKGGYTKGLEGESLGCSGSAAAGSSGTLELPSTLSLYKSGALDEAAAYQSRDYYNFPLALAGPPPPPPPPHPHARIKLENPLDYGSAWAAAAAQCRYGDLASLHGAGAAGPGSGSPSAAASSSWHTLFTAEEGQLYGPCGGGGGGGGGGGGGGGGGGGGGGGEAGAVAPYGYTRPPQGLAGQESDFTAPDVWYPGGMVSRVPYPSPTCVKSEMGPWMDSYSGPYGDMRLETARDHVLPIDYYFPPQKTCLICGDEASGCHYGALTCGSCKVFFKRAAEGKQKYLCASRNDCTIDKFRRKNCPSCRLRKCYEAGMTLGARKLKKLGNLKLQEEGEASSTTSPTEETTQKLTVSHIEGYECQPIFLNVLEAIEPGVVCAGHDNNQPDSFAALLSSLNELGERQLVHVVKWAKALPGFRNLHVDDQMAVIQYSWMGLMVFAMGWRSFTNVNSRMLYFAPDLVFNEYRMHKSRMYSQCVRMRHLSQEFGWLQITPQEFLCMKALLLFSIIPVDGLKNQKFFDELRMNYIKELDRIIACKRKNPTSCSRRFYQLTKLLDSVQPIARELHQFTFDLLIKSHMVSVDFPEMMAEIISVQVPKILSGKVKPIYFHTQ
# UniProt Q96RI1: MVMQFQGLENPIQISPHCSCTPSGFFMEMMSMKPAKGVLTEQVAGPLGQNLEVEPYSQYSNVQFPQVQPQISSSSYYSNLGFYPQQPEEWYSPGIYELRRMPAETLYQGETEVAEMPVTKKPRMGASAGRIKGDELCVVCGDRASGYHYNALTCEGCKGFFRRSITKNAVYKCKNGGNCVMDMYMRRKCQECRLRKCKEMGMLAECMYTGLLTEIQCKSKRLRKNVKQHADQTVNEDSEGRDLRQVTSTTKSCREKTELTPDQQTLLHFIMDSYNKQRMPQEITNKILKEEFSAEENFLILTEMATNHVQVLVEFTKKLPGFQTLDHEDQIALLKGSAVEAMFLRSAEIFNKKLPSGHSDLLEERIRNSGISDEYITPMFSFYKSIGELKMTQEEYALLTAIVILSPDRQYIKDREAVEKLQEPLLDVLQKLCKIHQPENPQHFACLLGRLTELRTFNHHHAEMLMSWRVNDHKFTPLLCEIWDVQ
# UniProt P37231: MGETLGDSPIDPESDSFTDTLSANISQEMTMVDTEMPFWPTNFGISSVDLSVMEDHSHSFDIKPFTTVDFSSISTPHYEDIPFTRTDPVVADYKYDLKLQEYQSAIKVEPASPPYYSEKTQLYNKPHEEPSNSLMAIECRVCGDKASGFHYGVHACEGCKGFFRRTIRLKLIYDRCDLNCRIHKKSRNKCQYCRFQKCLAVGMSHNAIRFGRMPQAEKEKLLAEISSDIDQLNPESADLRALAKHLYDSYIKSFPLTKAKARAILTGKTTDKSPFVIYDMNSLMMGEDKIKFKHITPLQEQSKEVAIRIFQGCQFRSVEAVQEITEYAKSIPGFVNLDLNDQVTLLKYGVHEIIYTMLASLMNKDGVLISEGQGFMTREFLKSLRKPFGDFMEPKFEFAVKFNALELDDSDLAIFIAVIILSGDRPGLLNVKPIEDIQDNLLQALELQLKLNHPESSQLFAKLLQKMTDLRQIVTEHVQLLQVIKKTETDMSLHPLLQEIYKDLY
# UniProt Q01959, whole entry, looked up: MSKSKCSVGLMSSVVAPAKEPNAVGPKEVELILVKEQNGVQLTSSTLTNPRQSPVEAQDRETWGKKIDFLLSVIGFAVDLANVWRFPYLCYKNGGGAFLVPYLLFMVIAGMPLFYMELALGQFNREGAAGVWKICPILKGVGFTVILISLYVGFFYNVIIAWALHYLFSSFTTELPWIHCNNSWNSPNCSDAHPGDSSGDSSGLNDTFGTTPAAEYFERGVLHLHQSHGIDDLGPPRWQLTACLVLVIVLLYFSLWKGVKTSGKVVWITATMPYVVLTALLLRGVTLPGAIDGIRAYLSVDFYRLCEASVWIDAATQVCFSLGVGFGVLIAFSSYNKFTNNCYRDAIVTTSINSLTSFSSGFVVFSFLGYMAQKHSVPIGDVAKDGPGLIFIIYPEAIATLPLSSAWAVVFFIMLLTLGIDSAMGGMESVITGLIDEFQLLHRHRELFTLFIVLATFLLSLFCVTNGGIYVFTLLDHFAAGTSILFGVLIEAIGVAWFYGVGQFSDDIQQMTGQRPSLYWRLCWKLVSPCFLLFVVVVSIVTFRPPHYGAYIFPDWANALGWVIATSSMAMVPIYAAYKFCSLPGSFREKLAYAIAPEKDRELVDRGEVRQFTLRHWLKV
# UniProt P19785, whole entry, looked up: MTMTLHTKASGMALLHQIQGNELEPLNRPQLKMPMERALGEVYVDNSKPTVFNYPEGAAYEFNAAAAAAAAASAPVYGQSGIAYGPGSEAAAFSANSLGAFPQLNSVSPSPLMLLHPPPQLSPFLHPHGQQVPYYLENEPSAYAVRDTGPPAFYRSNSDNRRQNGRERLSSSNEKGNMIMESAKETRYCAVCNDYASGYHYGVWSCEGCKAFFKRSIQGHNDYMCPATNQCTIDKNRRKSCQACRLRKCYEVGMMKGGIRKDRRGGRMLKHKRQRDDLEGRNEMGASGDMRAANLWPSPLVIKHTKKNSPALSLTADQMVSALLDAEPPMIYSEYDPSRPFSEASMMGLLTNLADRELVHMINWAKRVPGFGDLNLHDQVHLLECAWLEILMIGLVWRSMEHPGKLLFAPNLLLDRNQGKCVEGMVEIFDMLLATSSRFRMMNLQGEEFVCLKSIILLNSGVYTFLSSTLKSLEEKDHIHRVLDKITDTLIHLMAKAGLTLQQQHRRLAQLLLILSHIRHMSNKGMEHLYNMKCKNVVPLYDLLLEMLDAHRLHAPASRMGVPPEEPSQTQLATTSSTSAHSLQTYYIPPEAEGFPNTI
# UniProt Q92731, whole entry, looked up: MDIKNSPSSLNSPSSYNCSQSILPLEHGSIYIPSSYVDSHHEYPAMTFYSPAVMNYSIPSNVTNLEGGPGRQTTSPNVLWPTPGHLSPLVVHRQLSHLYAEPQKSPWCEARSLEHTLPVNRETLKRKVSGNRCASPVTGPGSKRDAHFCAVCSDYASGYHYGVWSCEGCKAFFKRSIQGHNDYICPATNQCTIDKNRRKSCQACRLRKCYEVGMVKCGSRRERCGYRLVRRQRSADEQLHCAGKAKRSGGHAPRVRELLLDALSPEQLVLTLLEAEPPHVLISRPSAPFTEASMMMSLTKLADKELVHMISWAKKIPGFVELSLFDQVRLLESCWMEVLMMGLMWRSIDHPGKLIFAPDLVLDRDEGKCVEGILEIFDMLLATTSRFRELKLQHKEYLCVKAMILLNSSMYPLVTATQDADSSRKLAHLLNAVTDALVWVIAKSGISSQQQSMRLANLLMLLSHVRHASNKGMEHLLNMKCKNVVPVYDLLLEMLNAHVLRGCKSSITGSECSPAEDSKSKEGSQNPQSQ
# “And” between values parts separate entries of the source, which are not always exact repeats. Equal values may be shown once. This list was built around the results that the source calls inconclusive (neither active nor inactive); the mix of calls is not that of the screen. For some assays here: Where the call is inconclusive, the potency comes from a doubtful curve fit. The source made the active and inactive calls. Rule for the calls: active = hit-call score of the fitted dose curve at least 0.9, where 1 is the maximum; inconclusive = response in the unintended direction; inactive = score below 0.9.
# What was measured:
# PGR (gene 5241) = PGR (gene 5241) (UniProt P06401); assay: NVS_NR_hPR: NovaScreen (NVS) Nuclear Receptor Binding Assay for human Progestron Receptor (PR) (AID 2283360);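 note: active means loss of bound radioligand signal versus DMSO baseline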
# Procedure, shortened: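 Competitive displacement of a labelled radioligand from T47D-derived receptor protein is measured in a cell-free format. Initial testing uses 25 uM in duplicate, with positive and negative controls on every plate.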
# [1] = target: Retinoic acid receptor alpha (Homo sapiens) (UniProt P10276); assay: NVS_NR_hRARa_Agonist: NovaScreen (NVS) Nuclear Receptor Binding Assay for human Retinoic Acid Alpha Receptor Agonism (RAR) (AID 2283361)
# Procedure, shortened: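 Readout is time-resolved fluorescence resonance energy transfer after a 2 h exposure of cell-free extracted receptor protein. Initial testing used 25 uM in duplicate, with concentration-response follow-up for active chemicals.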
# [2] = target: Nuclear receptor subfamily 1 group I member 2 (Homo sapiens) (UniProt O75469); assay: NVS_NR_hPXR: NovaScreen (NVS) Nuclear Receptor Binding Assay for human Pregnane X Receptor (PXR) (AID 2283365);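 note: a drop in FRET signal versus DMSO baseline means the compound binds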
# Procedure, shortened: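 Binding was measured by time-resolved fluorescence resonance energy transfer after a 2 h exposure of extracted human PXR protein without cells. Compounds were first tested at 25 uM in duplicate, with concentration series for actives; DMSO defined baseline.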
# [3] = target: Agonist Androgen Response Element (ARE), AR (gene 367) (UniProt P10275); assay: OT_AR_ARELUC_AG_1440: Odyssey Thera (OT) 24-hour CHO-K1 Luciferase Assay for Agonist Androgen Response Element (ARE) (AID 2283379)
# Procedure, shortened: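 Agonist mode, 24 h exposure in CHO-K1 ARE-luciferase cells; values reflect luminescence induction over vehicle.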
# [4] = target: Bile acid receptor (Homo sapiens) (UniProt Q96RI1); assay: OT_FXR_FXRSRC1_0480: Odyssey Thera (OT) 8-hour HEK293T Protein-Complementation Assay for Farnesoid X receptor/SRC-1 Co-activator (AID 2283383)
# Procedure, shortened: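 Co-activator recruitment to FXR was measured in living HEK293T cells, where interaction of the two fused partners restored an active fluorescent reporter. Signal gain after 8 h treatment was referenced to DMSO.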
# [5] = target: Peroxisome proliferator-activated receptor gamma (Homo sapiens) (UniProt P37231); assay: NVS_NR_hPPARg: NovaScreen (NVS) Nuclear Receptor Binding Assay for human Peroxisome Proliferator-activated Receptor gamma (PPARg) (AID 2283370)
# Procedure, shortened: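 Fluorescence polarization measures competitive binding to extracted PPARg in a cell-free format. Reading is taken at 2 h; activity is signal loss relative to DMSO. Screening at 25 uM in duplicate preceded confirmatory dose series.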
# [6] = target: human Dopamine Transporter (DAT), SLC6A3 (gene 6531) (UniProt Q01959); assay: NVS_TR_hDAT: NovaScreen (NVS) Transporter Assay for human Dopamine Transporter (DAT) (AID 2283374);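 note: activity means loss of bound radioligand signal relative to DMSO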
# Procedure, shortened: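 Test chemicals were first screened in duplicate at 25 uM, with actives retested as concentration series. Displacement of a specific radioligand from cell-free human dopamine transporter was measured after 1 h by filtration and scintillation counting.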
# [7] = target: mouse Estrogen Receptor alpha (Era), Esr1 (gene 13982) (UniProt P19785); assay: NVS_NR_mERa: NovaScreen (NVS) Nuclear Receptor Binding Assay for mouse Estrogen Receptor alpha (Era) (AID 2283378);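 note: hit means loss of bound radioligand signal relative to DMSO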
# Procedure, shortened: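 Test chemicals competed against a specific radioligand for binding to cell-free mouse Era. Duplicate wells at 25 uM were read 18 hours later by filter-based radiodetection, with loss of signal against DMSO scored as activity.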
# [8] = target: Bile acid receptor (Homo sapiens) (UniProt Q96RI1); assay: OT_FXR_FXRSRC1_1440: Odyssey Thera (OT) 24-hour HEK293T Protein-Complementation Assay for Farnesoid X receptor/SRC-1 Co-activator (AID 2283384)
# Procedure, shortened: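 Cell-based binding reporter: interaction of FXR with SRC-1 brings reporter fragments together, giving a fluorescence signal read 24 h after dosing of HEK293T cells.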
# [9] = target: Estrogen receptor beta (Homo sapiens) (UniProt Q92731); assay: OT_ER_ERbERb_1440: Odyssey Thera (OT) 24-hour HEK293T Protein-Complementation Assay for Estrogen Receptor-beta/-beta Homodimer (AID 2283380);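 note: fluorescence gain from ER beta LBD homodimer complementation read by laser scanning cytometry; scored as signal increase over DMSO baseline for both agonists and antagonists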
# Procedure, shortened: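 Fluorescence increase, nuclear for agonists or whole-cell for antagonists, relative to DMSO vehicle, quantified by laser scanning cytometer after fixation and Draq5 staining. Readout from 24 h treatment of HEK293T cells carrying complementation-paired ER beta LBD (aa 310-547).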
smiles,measurement,setting,value
C=CCOC(=O)CC(C)C,AC50,PGR (gene 5241),inconclusive: 1.58 µM
CCCCCCCCCCC,AC50,[1],inconclusive: 25 µM
same,AC50,[2],inconclusive: 25 µM
same,AC50,[3],inconclusive: 5.59 µM
CCCCNS(=O)(=O)c1ccc(C)cc1,outcome,[1],inactive
CCCCC(CC)COC(=O)c1ccc(N(C)C)cc1 (stereo unspecified),AC50,[1],inconclusive: 43.2 µM
same,AC50,[2],inconclusive: 0.0855 µM
same,AC50,[4],active: 32.7 µM
COc1cc(C(C)C)c2c(c1)S(=O)(=O)N(COc1cc(=O)n3cccc(OCCN4CCCCC4)c3n1)C2=O,outcome,[1],inactive
O=S(=O)(O)c1ccc(N=Nc2c(O)ccc3ccccc23)cc1,AC50,[1],active: 31.9 µM
same,AC50,[5],active: 20.7 µM
CC1=C(/C=C/C(C)=C/C=C/C(C)=C/CO)C(C)(C)CCC1,outcome,[1],inactive
same,AC50,[6],inconclusive: 0.425 µM
C#C[C@]1(O)CC[C@H]2[C@@H]3CCC4=Cc5oncc5C[C@]4(C)[C@H]3CC[C@@]21C,AC50,PGR (gene 5241),active: 41.5 µM
same,AC50,[7],inconclusive: 25 µM
CCCc1ccccc1,outcome,PGR (gene 5241),inactive
same,AC50,[1],inconclusive: 0.106 µM
O=S(=O)(O)c1ccc(N=Nc2c(O)ccc3cc(S(=O)(=O)O)ccc23)cc1,outcome,PGR (gene 5241),inactive
same,AC50,[4],inconclusive: 50 µM
O=C(O)Cc1cc(I)c(Oc2ccc(O)c(I)c2)c(I)c1,AC50,PGR (gene 5241),active: 6.44 µM
same,AC50,[2],inconclusive: 0.119 µM
same,AC50,[8],active: 28.6 µM and active: 29 µM and active: 23.8 µM
Nc1nc2ncc(CNc3ccc(C(=O)N[C@@H](CCC(=O)O)C(=O)O)cc3)nc2c(=O)[nH]1,AC50,[1],active: 15.8 µM
CCCCN1C(=O)[C@@H]([C@H](O)C2CCCCC2)NC(=O)C12CCN(Cc1ccc(Oc3ccc(C(=O)O)cc3)cc1)CC2,AC50,PGR (gene 5241),inconclusive: 0.959 µM
same,AC50,[5],inconclusive: 8.15 µM
same,outcome,[9],inactive

# Pulled one by one from above (2):
smiles,measurement,setting,value
CCCc1ccccc1,AC50,[1],inconclusive: 0.106 µM
O=S(=O)(O)c1ccc(N=Nc2c(O)ccc3ccccc23)cc1,AC50,[1],active: 31.9 µM
